Measured values reported in the supplement of paper PMC10849652.
The other results are listed elsewhere or left out.

Sequences of proteins named here, by UniProt entry; tags and fusion partners are left off. A change or cut given only in a name is not applied to a line headed by its entry.
UniProt O75600: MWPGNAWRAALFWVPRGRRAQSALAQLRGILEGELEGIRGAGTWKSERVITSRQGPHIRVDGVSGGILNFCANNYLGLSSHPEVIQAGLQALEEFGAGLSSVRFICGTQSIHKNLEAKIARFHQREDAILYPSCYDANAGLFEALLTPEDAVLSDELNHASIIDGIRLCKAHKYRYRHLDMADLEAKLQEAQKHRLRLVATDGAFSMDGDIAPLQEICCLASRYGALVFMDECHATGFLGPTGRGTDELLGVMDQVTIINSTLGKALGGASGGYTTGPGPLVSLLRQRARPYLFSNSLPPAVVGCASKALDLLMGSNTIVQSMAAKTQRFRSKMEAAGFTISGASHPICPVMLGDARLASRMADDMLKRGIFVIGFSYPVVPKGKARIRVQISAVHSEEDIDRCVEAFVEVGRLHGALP
UniProt Q9UET6: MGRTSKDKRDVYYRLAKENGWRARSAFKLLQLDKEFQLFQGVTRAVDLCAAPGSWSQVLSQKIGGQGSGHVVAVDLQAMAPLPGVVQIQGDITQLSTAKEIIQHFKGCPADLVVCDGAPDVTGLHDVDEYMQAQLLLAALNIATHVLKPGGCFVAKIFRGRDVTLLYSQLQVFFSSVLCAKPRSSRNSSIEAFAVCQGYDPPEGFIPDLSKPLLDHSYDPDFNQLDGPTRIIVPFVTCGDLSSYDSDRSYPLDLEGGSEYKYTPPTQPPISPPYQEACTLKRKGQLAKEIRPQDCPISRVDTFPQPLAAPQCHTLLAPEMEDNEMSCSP
UniProt P50395: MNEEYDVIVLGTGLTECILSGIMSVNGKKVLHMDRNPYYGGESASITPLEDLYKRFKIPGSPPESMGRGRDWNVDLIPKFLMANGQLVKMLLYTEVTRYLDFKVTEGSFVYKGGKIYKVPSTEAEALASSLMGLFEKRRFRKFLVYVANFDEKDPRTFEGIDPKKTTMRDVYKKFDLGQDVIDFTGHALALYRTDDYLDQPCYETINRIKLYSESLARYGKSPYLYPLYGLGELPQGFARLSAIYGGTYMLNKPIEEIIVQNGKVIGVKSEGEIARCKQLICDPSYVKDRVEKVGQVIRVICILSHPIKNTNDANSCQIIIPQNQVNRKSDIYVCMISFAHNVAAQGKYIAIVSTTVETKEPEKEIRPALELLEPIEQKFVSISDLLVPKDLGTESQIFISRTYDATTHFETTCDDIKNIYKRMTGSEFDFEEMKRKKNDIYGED
UniProt P07902: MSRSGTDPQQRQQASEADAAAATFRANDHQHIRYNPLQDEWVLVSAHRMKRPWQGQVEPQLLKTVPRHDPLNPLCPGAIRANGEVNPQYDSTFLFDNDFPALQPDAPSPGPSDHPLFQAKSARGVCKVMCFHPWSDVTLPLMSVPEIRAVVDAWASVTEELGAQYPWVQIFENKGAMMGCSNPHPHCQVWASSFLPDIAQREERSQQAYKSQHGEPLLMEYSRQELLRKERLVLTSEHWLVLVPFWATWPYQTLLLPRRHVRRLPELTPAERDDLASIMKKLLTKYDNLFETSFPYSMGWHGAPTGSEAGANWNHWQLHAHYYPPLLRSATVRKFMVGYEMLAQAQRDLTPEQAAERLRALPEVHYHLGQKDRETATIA
UniProt Q9HCG7: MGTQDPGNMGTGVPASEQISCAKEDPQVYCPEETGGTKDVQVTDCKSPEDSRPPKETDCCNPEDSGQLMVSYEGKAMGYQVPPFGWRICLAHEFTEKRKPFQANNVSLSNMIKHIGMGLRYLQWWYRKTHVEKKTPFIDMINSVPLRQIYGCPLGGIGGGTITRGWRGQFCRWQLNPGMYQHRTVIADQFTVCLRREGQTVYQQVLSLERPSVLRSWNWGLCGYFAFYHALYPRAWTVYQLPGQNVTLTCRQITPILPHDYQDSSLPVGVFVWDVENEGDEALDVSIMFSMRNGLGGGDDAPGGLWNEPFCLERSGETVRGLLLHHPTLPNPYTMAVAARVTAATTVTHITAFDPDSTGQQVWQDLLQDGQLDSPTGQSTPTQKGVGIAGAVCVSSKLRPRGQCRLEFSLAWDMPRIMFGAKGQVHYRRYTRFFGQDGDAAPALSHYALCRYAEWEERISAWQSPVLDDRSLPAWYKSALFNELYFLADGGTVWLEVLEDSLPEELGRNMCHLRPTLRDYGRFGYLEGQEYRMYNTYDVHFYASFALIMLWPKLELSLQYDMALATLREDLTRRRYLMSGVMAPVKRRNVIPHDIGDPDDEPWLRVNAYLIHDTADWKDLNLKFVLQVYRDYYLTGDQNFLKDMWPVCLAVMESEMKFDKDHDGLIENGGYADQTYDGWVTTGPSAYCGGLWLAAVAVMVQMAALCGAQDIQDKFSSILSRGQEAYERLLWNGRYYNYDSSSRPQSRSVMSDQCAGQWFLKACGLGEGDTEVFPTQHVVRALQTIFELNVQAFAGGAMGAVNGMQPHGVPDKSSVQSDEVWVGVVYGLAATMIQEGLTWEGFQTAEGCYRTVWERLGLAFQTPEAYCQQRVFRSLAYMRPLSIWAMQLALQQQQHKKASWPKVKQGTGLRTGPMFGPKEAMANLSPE
UniProt Q01415: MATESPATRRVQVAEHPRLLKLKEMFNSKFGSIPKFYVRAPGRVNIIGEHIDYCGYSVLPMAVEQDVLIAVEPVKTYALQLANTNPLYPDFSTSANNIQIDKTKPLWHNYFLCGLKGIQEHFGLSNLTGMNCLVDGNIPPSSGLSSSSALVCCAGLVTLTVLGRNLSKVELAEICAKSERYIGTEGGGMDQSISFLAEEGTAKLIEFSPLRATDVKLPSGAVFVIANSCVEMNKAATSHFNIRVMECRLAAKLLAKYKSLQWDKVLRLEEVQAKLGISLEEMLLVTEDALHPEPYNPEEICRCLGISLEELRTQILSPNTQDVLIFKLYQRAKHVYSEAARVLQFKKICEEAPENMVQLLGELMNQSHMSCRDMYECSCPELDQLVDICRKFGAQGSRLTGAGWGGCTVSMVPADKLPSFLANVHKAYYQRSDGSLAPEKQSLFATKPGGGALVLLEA
UniProt P30047: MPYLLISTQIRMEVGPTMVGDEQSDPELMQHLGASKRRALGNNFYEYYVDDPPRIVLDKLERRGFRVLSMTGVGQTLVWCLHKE
UniProt Q13283, whole entry, looked up: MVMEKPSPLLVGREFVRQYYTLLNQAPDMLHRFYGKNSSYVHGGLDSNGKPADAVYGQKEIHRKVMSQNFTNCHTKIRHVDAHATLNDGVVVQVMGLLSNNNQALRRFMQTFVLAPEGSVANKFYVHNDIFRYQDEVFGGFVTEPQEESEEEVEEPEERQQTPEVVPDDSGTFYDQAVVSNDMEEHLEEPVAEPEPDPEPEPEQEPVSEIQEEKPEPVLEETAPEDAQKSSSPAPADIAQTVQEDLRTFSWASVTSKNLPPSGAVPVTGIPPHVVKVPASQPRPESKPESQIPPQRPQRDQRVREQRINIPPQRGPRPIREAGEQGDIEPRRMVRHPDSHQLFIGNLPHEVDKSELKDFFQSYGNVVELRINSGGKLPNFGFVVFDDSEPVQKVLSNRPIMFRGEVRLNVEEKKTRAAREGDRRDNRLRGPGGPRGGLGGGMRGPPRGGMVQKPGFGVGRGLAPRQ
UniProt O15117, whole entry, looked up: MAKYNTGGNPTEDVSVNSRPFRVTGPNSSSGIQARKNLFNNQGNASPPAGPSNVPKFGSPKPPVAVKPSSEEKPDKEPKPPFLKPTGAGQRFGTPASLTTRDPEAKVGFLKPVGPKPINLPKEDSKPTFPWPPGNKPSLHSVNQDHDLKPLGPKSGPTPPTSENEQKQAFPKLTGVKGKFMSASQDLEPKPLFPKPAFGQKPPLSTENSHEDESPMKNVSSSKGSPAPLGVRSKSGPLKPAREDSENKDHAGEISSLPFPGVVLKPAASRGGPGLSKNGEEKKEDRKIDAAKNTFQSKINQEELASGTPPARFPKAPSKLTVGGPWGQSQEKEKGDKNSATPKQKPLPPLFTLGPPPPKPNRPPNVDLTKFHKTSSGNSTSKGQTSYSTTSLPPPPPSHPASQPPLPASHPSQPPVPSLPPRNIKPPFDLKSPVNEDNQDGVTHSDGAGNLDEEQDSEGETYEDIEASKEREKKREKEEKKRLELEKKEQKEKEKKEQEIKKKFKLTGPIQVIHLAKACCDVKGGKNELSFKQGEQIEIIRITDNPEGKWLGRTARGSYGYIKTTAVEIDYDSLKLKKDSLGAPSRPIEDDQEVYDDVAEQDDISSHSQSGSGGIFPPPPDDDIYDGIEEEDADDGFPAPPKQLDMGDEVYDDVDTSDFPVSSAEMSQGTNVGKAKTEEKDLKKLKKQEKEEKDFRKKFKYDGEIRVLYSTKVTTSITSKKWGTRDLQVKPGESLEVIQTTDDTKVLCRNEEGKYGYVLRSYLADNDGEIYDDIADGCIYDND
UniProt Q9H0R8, whole entry, looked up: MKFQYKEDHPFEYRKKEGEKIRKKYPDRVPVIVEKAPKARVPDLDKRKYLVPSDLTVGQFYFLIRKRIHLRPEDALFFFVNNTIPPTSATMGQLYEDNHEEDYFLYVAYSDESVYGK
UniProt Q6NT46: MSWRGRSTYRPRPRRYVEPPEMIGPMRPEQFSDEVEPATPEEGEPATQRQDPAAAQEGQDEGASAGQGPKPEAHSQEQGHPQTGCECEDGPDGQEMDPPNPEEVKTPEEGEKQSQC
UniProt P51570: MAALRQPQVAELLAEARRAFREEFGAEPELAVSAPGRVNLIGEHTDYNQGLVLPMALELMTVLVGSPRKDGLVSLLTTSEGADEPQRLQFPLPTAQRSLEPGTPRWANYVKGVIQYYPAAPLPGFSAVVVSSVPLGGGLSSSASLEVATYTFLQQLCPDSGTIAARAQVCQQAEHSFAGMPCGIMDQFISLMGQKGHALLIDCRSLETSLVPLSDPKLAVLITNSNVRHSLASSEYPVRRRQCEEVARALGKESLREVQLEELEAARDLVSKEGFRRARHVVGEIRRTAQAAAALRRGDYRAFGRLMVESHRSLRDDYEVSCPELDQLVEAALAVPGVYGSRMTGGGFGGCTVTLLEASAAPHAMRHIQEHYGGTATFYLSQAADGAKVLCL
UniProt Q86SF2: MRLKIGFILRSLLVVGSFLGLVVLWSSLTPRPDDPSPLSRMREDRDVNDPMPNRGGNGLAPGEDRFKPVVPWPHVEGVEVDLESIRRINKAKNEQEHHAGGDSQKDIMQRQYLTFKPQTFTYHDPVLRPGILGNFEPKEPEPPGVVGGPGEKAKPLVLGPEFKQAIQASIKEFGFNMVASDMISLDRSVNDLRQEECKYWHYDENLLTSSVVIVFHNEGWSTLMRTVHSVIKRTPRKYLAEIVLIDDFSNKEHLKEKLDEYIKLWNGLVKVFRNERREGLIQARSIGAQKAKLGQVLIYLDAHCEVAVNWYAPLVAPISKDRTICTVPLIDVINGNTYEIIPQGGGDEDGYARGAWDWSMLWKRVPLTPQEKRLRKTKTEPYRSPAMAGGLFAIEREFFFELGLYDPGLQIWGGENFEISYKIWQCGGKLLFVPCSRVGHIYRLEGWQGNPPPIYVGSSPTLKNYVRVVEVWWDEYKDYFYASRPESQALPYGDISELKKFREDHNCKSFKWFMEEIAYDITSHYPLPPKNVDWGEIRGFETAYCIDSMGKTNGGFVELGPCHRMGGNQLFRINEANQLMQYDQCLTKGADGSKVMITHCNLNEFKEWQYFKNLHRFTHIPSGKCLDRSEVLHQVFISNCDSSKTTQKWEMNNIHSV
UniProt Q01167: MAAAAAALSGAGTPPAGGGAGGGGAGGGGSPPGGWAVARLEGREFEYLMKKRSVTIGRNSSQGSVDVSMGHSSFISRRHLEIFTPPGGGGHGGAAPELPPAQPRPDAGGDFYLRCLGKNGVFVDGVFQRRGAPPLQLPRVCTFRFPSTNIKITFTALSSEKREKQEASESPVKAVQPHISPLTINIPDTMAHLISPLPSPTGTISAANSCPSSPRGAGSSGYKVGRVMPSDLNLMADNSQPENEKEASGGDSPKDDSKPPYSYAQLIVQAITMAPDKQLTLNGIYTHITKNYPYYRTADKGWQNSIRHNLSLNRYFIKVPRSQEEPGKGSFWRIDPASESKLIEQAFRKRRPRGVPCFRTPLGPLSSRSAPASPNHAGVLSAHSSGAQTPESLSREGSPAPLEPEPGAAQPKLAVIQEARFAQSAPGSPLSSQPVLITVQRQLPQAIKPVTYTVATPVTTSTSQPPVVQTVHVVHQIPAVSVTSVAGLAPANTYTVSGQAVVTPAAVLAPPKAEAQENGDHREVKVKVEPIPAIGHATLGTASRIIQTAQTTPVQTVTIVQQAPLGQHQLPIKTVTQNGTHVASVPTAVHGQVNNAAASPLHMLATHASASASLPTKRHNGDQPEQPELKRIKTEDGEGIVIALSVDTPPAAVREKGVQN

Key:
Experiment in all cases: log2 fold change, soluble protein after heating vs DMSO (PISA); higher = thermal stabilisation; K562 lysate, 10 uM; active = over 0.2 and 3.5 SD of the protein, either way, in both replicates (recomputed)
[1] = compound: C=CC(=O)N1CCC[C@@H](n2nc(-c3ccc(Oc4ccccc4)cc3)c3c(N)ncnc32)C1 [ibrutinib]
Method in brief: (§1)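 A 30 min treatment with 10 μM compound was applied to crude K562 extract at 1 mg/mL protein in PBS pH 7.4 with 1 mM MgCl2. Heating for 3 min spanned 48°C-58°C, after which aliquots were pooled, adjusted to 0.5% NP-40 at 4°C and spun at 21,000xg for 90 min. TMTpro 16plex LC-MS/MS of the supernatant, with channel sums equalised, gave values recorded as log-two fold change in thermal stability against solvent controls, from duplicates.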

[2] = compound: CC(=O)c1cnc2ccc(-c3cc(Cl)c(O)c(Cl)c3)nc2c1N[C@H]1CC[C@H](CN(C)C)CC1
Method in brief: as §1

[3] = compound: CC(C)(C)Cn1c(N)nc2ccc(-c3[nH]c(C(C)(C)C)nc3-c3ccc(F)cc3)nc21 [ralimetinib]
Method in brief: as §1

[4] = compound: CC(C)(O)CC(=O)NCCn1ccc2ncnc(Nc3ccc(Oc4cccc(C(F)(F)F)c4)c(Cl)c3)c21
Method in brief: as §1

[5] = compound: CC(C)C1=C2N=C(C=C(N2N=C1)NCC3=CC=CC=C3)NCCCCCCN
Method in brief: as §1

[6] = compound: CC1=C(C(CC(=O)N1)C2=CC=C(C=C2)C(F)(F)F)C(=O)NC3=C(C=C4C(=C3)C=NN4)F
Method in brief: as §1

[7] = compound: CC1=C(C2=C(C=C1)C(=O)C3=CC=CC=C3N2CCCN)C
Method in brief: as §1

[8] = compound: CC1=C(C=C(C=C1)NC(=O)C2=CC(=CC=C2)C(C)(C)C#N)NC3=CC4=C(C=C3)N=CN(C4=O)C
Method in brief: as §1

[9] = compound: CC1=C(C=C(C=C1)NC(=O)C2=CC(=CC=C2)N(C)C)NC(=O)C3=CC=C(C=C3)O
Method in brief: as §1

[10] = compound: CC1=CC=C(C=C1)SC2=C3C=C(SC3=CN=C2)C(=O)N
Method in brief: as §1

[11] = compound: CCCS(=O)(=O)Nc1ccc(F)c(C(=O)c2c[nH]c3ncc(-c4ccc(Cl)cc4)cc23)c1F [vemurafenib]
Method in brief: as §1

[12] = compound: CCCS(=O)(=O)Nc1ccc(F)c(C(=O)c2c[nH]c3ncc(Cl)cc23)c1F
Method in brief: as §1

[13] = compound: CCN(CCCOc1ccc2c(Nc3cc(CC(=O)Nc4cccc(F)c4)[nH]n3)ncnc2c1)CCOP(=O)(O)O [barasertib]
Method in brief: as §1

[14] = compound: CC[C@@H]1C(=O)N(C)c2cnc(Nc3ccc(C(=O)NC4CCN(C)CC4)cc3OC)nc2N1C1CCCC1
Method in brief: as §1

[15] = compound: CC[C@@H]1C(=O)N(C)c2cnc(Nc3ccc(C(=O)N[C@H]4CC[C@H](N5CCN(CC6CC6)CC5)CC4)cc3OC)nc2N1C(C)C [volasertib]
Method in brief: as §1

[16] = compound: CCn1c(C(=O)N(C2CC2)C2CC2)cc2c3c(ncn3C)c(Nc3cc(C)n(C)n3)nc21
Method in brief: as §1

[17] = compound: CCn1cc(-c2ccnc3[nH]c(-c4cccc(CN(C)C)c4)cc23)c(-c2ccc(NC(=O)N(C)C)cc2)n1
Method in brief: as §1

[18] = compound: CN1CCC(CNc2ccc3ncc(-c4cccc(OC(F)(F)F)c4)n3n2)CC1
Method in brief: as §1

[19] = compound: CN1CCN(CCOc2cc(OC3CCOCC3)c3c(Nc4c(Cl)ccc5c4OCO5)ncnc3c2)CC1 [saracatinib]
Method in brief: as §1

[20] = compound: CN1CCN(c2nc(C3=C(c4c[nH]c5ccccc45)C(=O)NC3=O)c3ccccc3n2)CC1 [sotrastaurin]
Method in brief: as §1

Measured: log2 fold change

GCAT isoform 2 (UniProt O75600)
inactive: [1] 0.021 | [2] 0.019 | [3] 0.003 | [4] -0.041 | [5] 0.026 | [6] 0.025 | [7] -0.042 | [8] -0.022 | [9] 0.044 | [10] -0.002 | [11] -0.005 | [12] -0.027 | [13] 0.063 | [14] -0.019 | [15] 0.03 | [16] -0.032 | [17] 0.039 | [18] 0.014 | [19] 0 | [20] 0.019

FTSJ1 (UniProt Q9UET6)
inactive: [1] 0.004 | [2] -0.006 | [3] -0.03 | [4] 0.094 | [5] -0.054 | [6] 0.011 | [7] 0.069 | [8] -0.024 | [9] 0.062 | [10] 0.03 | [11] -0.036 | [12] -0.006 | [13] -0.043 | [14] -0.04 | [15] -0.056 | [16] -0.003 | [17] 0.067 | [18] 0.027 | [19] -0.018 | [20] 0.089

GDI2 (UniProt P50395)
inactive: [1] -0.028 | [2] 0.001 | [3] -0.018 | [4] 0.005 | [5] -0.005 | [6] -0.026 | [7] 0.008 | [8] -0.013 | [9] -0.009 | [10] 0.005 | [11] -0.016 | [12] 0.018 | [13] -0.022 | [14] -0.001 | [15] -0.004 | [16] -0.017 | [17] 0.193 | [18] -0.049 | [19] -0.017 | [20] -0.004

GALT (UniProt P07902)
inactive: [1] 0.058 | [2] 0.005 | [3] -0.026 | [4] -0.123 | [5] 0.051 | [6] -0.032 | [7] -0.01 | [8] 0.016 | [9] 0.02 | [10] -0.009 | [11] 0.065 | [12] -0.033 | [13] 0.023 | [14] 0.026 | [15] 0.011 | [16] 0.034 | [17] -0.051 | [18] 0.046 | [19] 0.028 | [20] -0.036

GBA2 (UniProt Q9HCG7)
inactive: [1] -0.071 | [2] -0.046 | [3] 0.082 | [4] -0.097 | [5] 0.042 | [6] -0.037 | [7] 0.077 | [8] 0.004 | [9] 0.08 | [10] 0.021 | [12] 0.12 | [13] -0.01 | [14] 0.099 | [15] -0.21 | [16] 0 | [17] -0.076 | [18] 0.025 | [19] 0.033 | [20] 0.001

GALK2 (UniProt Q01415)
inactive: [1] -0.022 | [2] -0.017 | [3] -0.025 | [4] -0.023 | [5] -0.017 | [6] -0.057 | [7] -0.035 | [8] 0.016 | [9] -0.007 | [10] -0.03 | [11] -0.004 | [12] 0.001 | [13] 0.028 | [14] 0.013 | [15] 0 | [16] -0.014 | [17] -0.02 | [18] 0.01 | [19] -0.026 | [20] -0.003

2 successive entries from above, for reference:
GBA2 (UniProt Q9HCG7)
inactive: [1] -0.071 | [2] -0.046 | [3] 0.082 | [4] -0.097 | [5] 0.042 | [6] -0.037 | [7] 0.077 | [8] 0.004 | [9] 0.08 | [10] 0.021 | [12] 0.12 | [13] -0.01 | [14] 0.099 | [15] -0.21 | [16] 0 | [17] -0.076 | [18] 0.025 | [19] 0.033 | [20] 0.001

GALK2 (UniProt Q01415)
inactive: [1] -0.022 | [2] -0.017 | [3] -0.025 | [4] -0.023 | [5] -0.017 | [6] -0.057 | [7] -0.035 | [8] 0.016 | [9] -0.007 | [10] -0.03 | [11] -0.004 | [12] 0.001 | [13] 0.028 | [14] 0.013 | [15] 0 | [16] -0.014 | [17] -0.02 | [18] 0.01 | [19] -0.026 | [20] -0.003

Additional records:

GCHFR (UniProt P30047)
inactive: [1] 0.057 | [2] -0.053 | [3] -0.031 | [4] -0.032 | [5] 0.016 | [6] 0.029 | [7] -0.07 | [8] 0.087 | [9] -0.04 | [10] -0.07 | [11] 0.059 | [12] 0.019 | [13] 0.002 | [14] 0.04 | [15] -0.001 | [16] -0.004 | [17] -0.101 | [18] 0.133 | [19] 0.018 | [20] -0.155

G3BP1 (UniProt Q13283)
inactive: [1] -0.004 | [2] -0.003 | [3] 0.03 | [4] -0.01 | [5] -0.024 | [6] 0.018 | [7] 0.032 | [8] -0.045 | [9] 0.002 | [10] 0.007 | [11] -0.018 | [12] 0.01 | [13] -0.033 | [14] -0.036 | [15] -0.006 | [16] 0.013 | [17] -0.188 | [18] 0.098 | [19] -0.015 | [20] 0.047

FYB1 isoform 3 (UniProt O15117)
inactive: [1] -0.008 | [2] -0.01 | [3] -0.022 | [4] -0.008 | [5] 0.005 | [6] -0.017 | [7] -0.042 | [8] 0.059 | [9] 0.008 | [10] -0.013 | [11] -0.056 | [12] -0.011 | [13] -0.003 | [14] 0.043 | [15] -0.026 | [16] -0.018 | [17] 0.072 | [18] -0.101 | [19] 0.007 | [20] 0.008

GABARAPL1 isoform 2 (UniProt Q9H0R8)
inactive: [1] 0.281 | [2] 0.024 | [3] -0.012 | [4] -0.009 | [5] -0.023 | [6] -0.026 | [7] -0.034 | [8] 0.059 | [9] -0.052 | [10] -0.005 | [11] 0.053 | [12] 0.012 | [13] -0.125 | [14] -0.004 | [15] 0.002 | [16] 0.006 | [17] 0.094 | [18] 0.029 | [19] 0 | [20] -0.048

GAGE2A (UniProt Q6NT46)
inactive: [1] 0.036 | [2] -0.037 | [3] 0.058 | [4] -0.065 | [5] -0.02 | [6] 0.025 | [7] -0.054 | [8] 0.03 | [9] -0.063 | [10] -0.006 | [11] 0.05 | [12] -0.039 | [13] 0.26 | [14] 0.051 | [15] 0.082 | [16] -0.014 | [17] 0.003 | [18] -0.028 | [19] 0.002 | [20] 0.037

GALK1 isoform 2 (UniProt P51570)
inactive: [1] 0.002 | [2] 0.032 | [3] -0.013 | [4] -0.001 | [5] -0.006 | [6] -0.021 | [7] -0.026 | [8] 0.002 | [9] -0.001 | [10] 0.04 | [11] 0.024 | [12] 0.01 | [13] 0.031 | [14] 0.003 | [15] -0.054 | [16] -0.009 | [17] 0.085 | [18] -0.055 | [19] -0.011 | [20] 0.031

GALNT7 (UniProt Q86SF2)
inactive: [1] 0.01 | [2] 0.03 | [3] 0.029 | [4] -0.056 | [5] -0.026 | [6] 0.036 | [7] -0.02 | [8] 0.024 | [9] -0.004 | [10] 0.002 | [11] 0.057 | [12] 0.001 | [13] -0.003 | [14] 0.002 | [15] 0 | [16] -0.05 | [17] 0.181 | [18] -0.057 | [19] -0.006 | [20] 0.023

FOXK2 (UniProt Q01167)
inactive: [1] 0.054 | [2] -0.055 | [3] -0.012 | [4] -0.109 | [5] 0.031 | [6] -0.037 | [7] 0.041 | [8] 0.01 | [9] -0.016 | [10] 0.018 | [11] 0 | [12] -0.004 | [13] 0.041 | [14] 0.066 | [15] 0.003 | [16] -0.028 | [17] 0.079 | [18] 0.061 | [19] 0.02 | [20] 0.034

FREM2 (UniProt Q5SZK8)
inactive: [1] -0.062 | [2] 0.024 | [3] -0.014 | [4] -0.042 | [5] -0.024 | [6] -0.06 | [7] -0.01 | [8] 0.079 | [9] 0.035 | [10] -0.073 | [11] 0.003 | [12] -0.082 | [13] 0.136 | [14] -0.072 | [15] 0.026 | [16] 0.014 | [17] -0.366 | [18] 0.151 | [19] 0.051 | [20] 0.056
